Experimental data taken from PubChem BioAssay AID1347076 (National Center for Advancing Translational Sciences (NCATS), 2019).
About 13,000 (3.2%) of roughly 400,000 compounds were called active. The shares of active, inactive and inconclusive entries below differ from those in the screen. Calls follow the shape of the dose curve; as a rule, active = well fitted cell-killing curve with a large enough effect; inconclusive = small, poorly fitted or top-dose-only effect, or effect the other way; inactive = flat fitted curve, though single readings scatter. Where the call is inconclusive, the potency comes from a doubtful curve fit.

assay: qHTS assay for MDR1-selective chemotherapeutics: Primary screen using the drug-selected MDR subline cells KB-V1; conditions: KB-V1 MDR cells viability, CellTiter-Glo, 72 h; activity change, negative = cytotoxicity: at 46.1 µM (top of the series); also: nearly all actives have a fitted effect of over 60% in size
Summary of the method: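 Drug-selected KB-V1 cells, grown in DMEM lacking phenol red with 10% FBS, receive compound titrations; after three days at 37 degrees C, surviving cell ATP is quantified by CellTiter-Glo luminescence and responses normalized and curve-fitted.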
% is scaled to controls: 0 for no effect and ±100 for the full control effect; potency is read from the fitted curve at half-maximal effect.

Row | SMILES | Potency | activity change, negative = cytotoxicity
1 | CCCCCCCCN1C(=O)[C@H](CC(=O)NCC2CCCCC2)C[C@@]2(C(=O)OCC)CCCC=C12 | inconclusive: 9.2 µM [cytotoxic, partial curve] | 
2 | CN(CC(=O)NCCc1ccccc1)S(=O)(=O)c1cccc2nsnc12 | active: 9.2 µM | 
3 | CCOc1ccc(CNS(=O)(=O)c2c(C)nc3scc(C)n3c2=O)cc1OC | inconclusive: 0.651 µM [rising, full curve, poor fit] | 
4 | CN1CCN(c2ccc(-c3cccc(NC(=O)COc4ccc(Cl)cc4Cl)c3)nn2)CC1 | inactive | 
5 | Cc1ccc2c(c1)CCO[C@@]21O[C@H](CCO)C[C@H](O)[C@H]1O | inconclusive: 23.1 µM [rising, single point] | 
6 | CCCCC1=CC2=C(c3ccco3)C(=O)C(C)(OC(=O)c3ccc(OC)cc3)C(=O)C2=CN1c1ccc(OC)cc1 (stereo not given) | inconclusive: 29.1 µM [rising, single point] | 
7 | FC(F)(F)c1ccc(CN2C[C@@H]3C(c4ccc(C(F)(F)F)cc4)C4(c5cccnc5)CC3(C4)[C@H]2c2ccccc2)cc1 (stereo not given in full) | inconclusive: 25.9 µM [cytotoxic, partial curve, poor fit] | 
8 | O=C(Nc1cccc(C(=O)N2CCN(c3ccc(F)cc3)CC2)c1)c1nsc2ccccc12 | inactive | 
9 | O=C(COC(=O)c1cc([N+](=O)[O-])ccc1N1CCOCC1)Nc1c(Cl)cccc1Cl | inconclusive: 9.2 µM [cytotoxic, partial curve] | 
10 | CCc1c(-c2ccc(Cl)cc2)ncn1Cc1cccc(-c2ccccc2)c1 | inconclusive: 20.6 µM [cytotoxic, single point] | 
11 | COCCn1c(SCC(=O)Nc2ccc(NC(C)=O)cc2)nc2ccccc2c1=O | inactive | 
12 | O=C(Nc1ccc(Oc2ccccc2)cc1)C1CCN(S(=O)(=O)c2ccccc2)CC1 | active: 6.51 µM | 
13 | COc1ccc(/C=N\NC(=O)C2CCCC2)cc1Br | inactive | 
14 | Cc1cc(C)cc(C(=O)Nc2nnc(SCC(=O)N3CCCc4ccccc43)s2)c1 | inconclusive: 8.2 µM [cytotoxic, partial curve] | 
15 | Fc1cccc(CSc2ccc(-c3ccc4c(c3)OCO4)nn2)c1 | inconclusive: 18.4 µM [cytotoxic, single point] | 
16 | NS(=O)(=O)c1cc(C(=O)OCC(=O)Nc2ccc(N3CCCCC3)cc2)ccc1Cl | inactive | 
17 | COCCCNC(=O)CCc1nc2cccnc2n1Cc1ccccc1 | inconclusive: 16.4 µM [cytotoxic, partial curve] | 
18 | CCC12CC3CC(C1)CC(C(=O)NNC(N)=O)(C3)C2 | inconclusive: 29.1 µM [rising, single point] | 
19 | Clc1ccccc1-c1nnn(Cc2ccc(-c3nn[nH]n3)cc2)n1 | inconclusive: 1.84 µM [rising, full curve] | 
20 | CNC[C@@H]1OCc2ccccc2-c2c(n(C)c3ccccc23)C(=O)N([C@H](C)CO)C[C@H]1C | inactive | 
21 | CCN1CCN(c2cc(N3CCN(C(=O)c4ccco4)CC3)c3c4c(onc24)-c2ccccc2C3=O)CC1 | inconclusive: 23.1 µM [cytotoxic, partial curve] | 
22 | Cn1nc(-c2ccc(Cl)cc2)cc1NC(=O)Nc1ccccc1 | inactive | 
23 | O=C(NCCC1=CCCCC1)C1CCN(S(=O)(=O)c2ccccc2C(F)(F)F)CC1 | inconclusive: 18.4 µM [cytotoxic, single point] | 
24 | Cc1cc2oc(C(=O)Nc3ccc(S(=O)(=O)Nc4onc(C)c4C)cc3)cc(=O)c2cc1C | inconclusive: 29.1 µM [rising, single point] | 

Entries of single compounds, quoted from the list.
`COCCn1c(SCC(=O)Nc2ccc(NC(C)=O)cc2)nc2ccccc2c1=O` is entered as Potency: inactive
`CN1CCN(c2ccc(-c3cccc(NC(=O)COc4ccc(Cl)cc4Cl)c3)nn2)CC1` is entered as Potency: inactive
`CCC12CC3CC(C1)CC(C(=O)NNC(N)=O)(C3)C2` is entered as Potency: inconclusive: 29.1 µM [rising, single point]

(cont.)

Row | SMILES | Potency | activity change, negative = cytotoxicity
25 | COc1cc(C=O)c(Br)cc1OCc1ccc(C)cc1 | inactive | 
26 | O=C(COc1ccccc1Cl)Nc1cccnc1 | inconclusive: 7.31 µM [rising, partial curve, poor fit] | 
27 | COc1cccc(NC(=O)C(=O)NCCc2ccc(F)cc2)c1 | inactive | 
28 | COCCCNc1nc2nonc2nc1N1CCC(C(C)N2CCOCC2)CC1 (stereo not given) | inactive | 
29 | CC(C)C[C@@H]1CC2=C(C(=O)OC(C)(C)O2)[C@H](CCc2ccccc2)O1 | inconclusive: 14.6 µM [cytotoxic, partial curve, poor fit] | 
30 | Cc1cc(NC(=O)CSCC(=O)Nc2cc(C(F)(F)F)ccc2N2CCCC2)no1 | inconclusive: 20.6 µM [cytotoxic, single point] | 
31 | O=C(NN=C1c2ccccc2-c2ccccc21)c1ccccn1 | active: 5.17 µM | 
32 | O=S(=O)(O)c1cc(O)c(N=Nc2ccc(O)cc2O)c2ccccc12 | inactive | 
33 | CCN(CCCNC(=O)c1cc2c(=O)[nH]c3ccc(C)cc3c2s1)Cc1ccccc1 | inactive | 
34 | Cc1ccc(NC(=O)c2ccc(S(=O)(=O)N3CCCC3)cc2)cc1 | active: 23.1 µM | 
35 | CCCCOc1ccc(C(=O)NCCN2CCC(n3c(=O)[nH]c4ccccc43)CC2)cc1 | inconclusive: 18.4 µM [cytotoxic, partial curve, poor fit] | 
36 | CC(=O)NNC(=O)CN1C(=O)/C(=C/c2ccccc2)SC1=S | inconclusive: 7.31 µM [rising, partial curve, poor fit] | 
37 | C[C@H]1CN([C@@H](C)CO)C(=O)CCCn2nncc2CO[C@H]1CN(C)C(=O)Cc1ccccc1 | inactive | 
38 | COC(=O)c1cccc(-n2c(C)cc(C=O)c2C)c1 | inactive | 
39 | CCOC(=O)N1CCN(C(=O)C[C@@H]2C[C@@]3(C(=O)OC)CC(C)(C)CC=C3N(Cc3cccc4ccccc34)C2=O)CC1 | active: 18.4 µM | 
40 | Cc1cccc(N2CCN(C(=S)Nc3ccc4nc(N5CCOCC5)cc(C)c4c3)CC2C)c1 (stereo not given) | inactive | 
41 | O=C(/C=C1\NCC2c3ccccc3CCN2C1=O)c1ccccc1 (stereo not given) | inconclusive: 8.2 µM [cytotoxic, partial curve] | 
42 | O=C(Cc1ccccc1)Nc1nc(=O)c2ccccc2s1 | inactive | 
43 | Cc1ccc(CSCC(=O)N/N=C/c2ccc(OCC(=O)Nc3ccc(C)cc3)cc2)cc1 | inconclusive: 16.4 µM [cytotoxic, single point] | 
44 | CN(Cc1ccco1)C(=O)CSc1nc(C2CC2)n(-c2ccccc2)n1 | inconclusive: 20.6 µM [cytotoxic, single point] | 
45 | Cc1ccc(C(=O)O)cc1NCc1ccncc1 | inactive | 
46 | O=C(Nc1ccccc1NS(=O)(=O)c1ccc(F)cc1)C1CCC1 | inconclusive: 2.91 µM [rising, full curve, poor fit] | 
47 | COc1ccccc1-c1cc(C(=O)NC2CCCC2)no1 | inconclusive: 18.4 µM [cytotoxic, single point] | 
48 | CSc1nccc(N2CCN(c3ccc(F)cc3)CC2)n1 | inconclusive: 20.6 µM [cytotoxic, partial curve] | 

Row | SMILES | Potency | activity change, negative = cytotoxicity
49 | Cc1cc(C)c(NC(=O)c2oc3ccccc3c2COc2ccccc2)c(C)c1 | inconclusive: 16.4 µM [cytotoxic, partial curve, poor fit] | 
50 | Cc1cc2n(n1)CCCN2C(=O)Nc1cccc(C)c1C | inactive | 
51 | Cc1ccc(NC(=O)CN(C)C(=O)c2cccnc2Nc2cccc(C(F)(F)F)c2)cc1 | inconclusive: 29.1 µM [cytotoxic, single point] | 
52 | O=C(Nc1ccccc1C(=O)N1CCCCCC1)c1ccc(Cl)cc1 | inconclusive: 1.03 µM [cytotoxic, full curve] | 
53 | COc1ccc(C2=NN(C(=O)CCC(=O)O)C(c3ccc(F)cc3)C2)cc1 (stereo not given) |  | inconclusive: 33.2%
54 | COc1ccc(C(=O)C=Cc2ccc3c(c2)OCO3)cc1OC | inconclusive: 29.1 µM [cytotoxic, single point] | 
55 | CCc1ccc(N2CC(C(=O)OCC(=O)Nc3ccccc3C)CC2=O)cc1 (stereo not given) | inconclusive: 13 µM [rising, partial curve] | 
56 | COc1ccc(CN2CCN(Cc3cccc(Oc4ccccc4)c3)CC2)c(OC)c1OC | inactive | 
57 | Cc1ccc(Cn2c(=O)c3cccnc3n(Cc3ccc(F)cc3)c2=O)cc1 | inconclusive: 29.1 µM [rising, single point] | 
58 | O=C(NNS(=O)(=O)c1ccccc1F)c1sccc1-n1cccc1 | inactive | 
59 | Cc1ccc(-c2noc(CSc3nnc(Cc4ccccc4)n3-c3ccc(Cl)cc3)n2)cc1 | active: 18.4 µM | 
60 | COc1cc(C(=O)OC2CC3CCC2(C)C3(C)C)ccc1OC(C)=O (stereo not given) | inconclusive: 20.6 µM [rising, single point] | 
61 | COc1ccc(S(=O)(=O)N2CCCCC2)cc1NC(=O)CSc1ncnc2ccccc12 | active: 20.6 µM | 
62 | CN(C)C(CNC(=S)Nc1cccc(Cl)c1)c1ccccc1 (stereo not given) | inconclusive: 23.1 µM [cytotoxic, single point] | 
63 | NC(=O)c1ccc(-c2c(-c3ccccc3)sc3ccccc23)cc1 | inconclusive: 29.1 µM [rising, single point] | 
64 | COc1ccc(NC(=O)c2coc3ccccc23)cc1OC | inactive | 
65 | Cc1ccc(S(=O)(=O)N2CCN(CC(=O)N/N=C/c3ccc(C)o3)CC2)cc1 | inconclusive: 11.6 µM [cytotoxic, partial curve, poor fit] | 
66 | Cc1ccccc1C(=O)N1CCN(C(c2ccccc2)c2ccccc2)CC1 | inconclusive: 29.1 µM [cytotoxic, single point] | 
67 | Cc1cc(C)n(-c2nc(NCCCN(C)C)c3c4c(sc3n2)CCCC4)n1 | inconclusive: 20.6 µM [cytotoxic, single point] | 
68 | COc1ccccc1NC1=C(Cl)C(=O)N(C2CCCCC2)C1=O | inactive | 
69 | COC(=O)N1[C@H](C)C=C[C@]1(Cc1ccccc1)C(=O)OC | inconclusive: 8.2 µM [rising, partial curve, poor fit] | 
70 | CC(C)C(=O)Nc1ncc(Cc2ccc(Cl)cc2)s1 | inconclusive: 18.4 µM [cytotoxic, single point] | 
